Experimental data published in publication PMC10163288.
This is one part of the list.

B1: il2ra_site2_3nfp_sap_15_mot_HHH_b1_07095_000000265_0001_1_20_H_._HHH_b2_07388_af2_0001_0000200007_0000001_0_0001 (protein)
chain: SSSSSEEVEEAQALATELARRLMEEGDHEAALELYRLALELYRTGDPELARELLEFVEEFSSSSS
B2: il2ra_site2_3nfp_sap_9_mot_HHH_b2_05976_000000001_0001_22_38_H_._HHH_b2_00671_af2_0001_0000300011_0000001_0_0001 (protein)
chain: SSSSDYEEQATESAEKMAKELGDEELVEELRELLEEYKEKGDARVLLELYEVILEVYERAHSSSS
B3: il2ra_site1_2b5i_sap_17_mot_e16fbc155443e7b5a8f44372f038f9e6_0001_1_af2_000000163_0001_16_32_H_._9e5b67f2fe50fe8120620fffc4d177d6_0001_af2_0001_0000200044_00000 … (protein)
chain: SSSSDEIFQEILRLYHEASELYRQGNHEEARKLLEEAIRLAEEGNDENALRDLERFLELLGSSSS
B4: il2ra_site2_3nfp_normal_mot_2b1f115384cdfca4a5db2aa6683d1a54_0001_af2_000000285_0001_52_65_H_._ems_3hM_1325_0001_0000300029_0000001_0 (protein)
chain: SSSELEEEVEELREIAEEAAKHNDEEAILRAASEASELAEKYDDPEFFDLYAFIADLRAKVVRSS
B5: il2ra_site1_1z92_sap_18_mot_HHH_b2_06954_000000142_0001_1_20_H_._HHH_b1_01220_0001_0000300033_0000001_1_0001_af2pred_0001_af2pred_1 (protein)
chain: SSSSEESLKKNAERLVEDLVRLAGLSEEQEKELEELAKELVERGVDPQEIARILEKLALELSSSS
B6: il2ra_site2_3nfp_sap_10_mot_HHH_b2_05976_000000001_0001_22_38_H_._HHH_b2_00671_af2_0001_0000800043_0000001_0_0001 (protein)
chain: SSSSDKELEIMQLAMRAHELAKEGDPEEARELLEEALRLAEEAGNEWQQRYVRARLLLLNSSSSS
B7: il2ra_site2_3nfp_normal_mot_HHH_b1_03236_af2_000000201_0001_37_52_H_._HHH_b2_02667_af2_0001_0000400023_0000001_0 (protein)
chain: SSSSDEEEVEEVKEKLERLLKEGDEEELEKLLKRAADLAYRLNDFELFALISEILLELIRGSSSS
B8: il2ra_site1_2b5i_normal_mot_22370d59370c406a0c205a431f537cfa_0001_af2_000000027_0001_1_31_H_._HHH_b1_03515_af2_0001_0000200012_0000001_0 (protein)
chain: SSSDDNELARRATEIVWRLRFEYNLSREQARALERLAAELLDRGVDEEEIEERLEELAKELGSSS
B9: il2ra_site2_2erj_sap_15_mot_a171aa182591c97700389b7a6f87ba9a_0001_af2_000000046_0001_32_46_H_._HHH_b2_06187_af2_0001_0000300019_0000001_0_0001_af2pred_0001_af2p … (protein)
chain: SSSSSDEEEVREEVERLLEEAERIPDQEEALKLLQEAAELALEIGDPELIELVDEVLQRLSSSSS
B10: il2ra_site2_2erj_sap_20_mot_HHH_b1_07584_000000201_0001_42_55_H_._HHH_b1_02580_af2_0001_0000600009_0000001_0_0001 (protein)
chain: SSSSSDWLHRLYELANELMKAVARGDEEEAEELAEEIQKLAEERDSPNVEEIAKALLRLLSSSSS
B11: il2ra_site2_3nfp_sap_25_mot_HHH_b2_06150_000000217_0001_39_53_H_._HHH_b2_05014_af2_0001_0000600020_0000001_0_0001 (protein)
chain: SSSSDEREKYLEAALLLLREALEEGDEELAERHAEILLQAAEDANDEEVRREVEEILKELSSSSS
B12: il2ra_site1_2b5i_sap_9_mot_HHH_b1_06258_af2_000000112_0001_42_56_H_._HHH_b1_00682_af2_0001_0002200062_0000001_0_0001_af2pred_dldesign_0_af2pred (protein)
chain: SSSSSEAEVLLKEAEAALKAGDKEKLEEILKRLDELIAASEDPRKRRRLQAVRDCIADALSSSSS
B13: il2ra_site2_3nfp_normal_mot_HHH_b1_06797_000000164_0001_24_40_H_._HHH_b2_08062_0001_0000200006_0000001_0 (protein)
chain: SSSSSKAEEYLRAVVLVIELALEAGDHESARSALHAAEQLAKDLGDEELLERLEELAERVNSSSS
B14: il2ra_site1_1z92_sap_23_mot_HHH_b1_02395_af2_000000187_0001_1_21_H_._HHH_b2_07504_af2_0001_0000500009_0000001_0_0001_af2pred_0001_af2pred_1 (protein)
chain: SSSDRRLEKNAKLIVRAAVEAAGLSEEQKEELEEVARELVEKGFSFEEIFRILDKEALKLASSSS
B15: il2ra_site2_3nfp_sap_12_mot_HHH_b1_04084_000000061_0001_23_39_H_._HHH_b1_08671_af2_0001_0000100012_0000001_0_0001 (protein)
chain: SSSSDEEELERLREEIEKLIEEGDKLEVAELVMELSELAARLQDEEAVKFVIRVYEWLKGSSSSS
B16: il2ra_site1_1z92_sap_15_mot_3c291a2f2994a8e029b17f9ec7f22732_0001_000000183_0001_17_31_H_._42f8b9a235e54c912819b8ab3aebd5a2_0001_0001_0000300018_0000001_0_0001_ … (protein)
chain: DEEEAEELLREILKERGSEEILERLLEHAERAFGDPKEALKALISVALKLLGDPRLEEALQLVRK
B17: il2ra_site1_3nfp_sap_12_mot_HHH_b1_01231_af2_000000170_0001_1_16_H_._HHH_b2_04884_af2_0001_0000600017_0000001_0_0001 (protein)
chain: SSSSSDVEERVEELLEQAEELVKKGNWEEALKAAEEVFHLIARAGNPELDRLLREWLRRNSSSSS
B18: il2ra_site1_1z92_normal_mot_HHH_b1_01239_000000025_0001_23_39_H_._HHH_b1_01610_af2_0001_0000400030_0000001_0_af2pred_0001_1_af2pred_swapped (protein)
chain: SSSSSSDEELERIQQLFKEASRVSKEEARELLEEAEELAKELGNELERRDIEIMLEFLSSSSSSS

Target: il2ra, P01589
Test: yeast display titration

Apparent Kd, inactive:
B1 no binding seen
B2 no binding seen
B3 no binding seen
B4 > 52.4 µM
B5 no binding seen
B6 no binding seen
B7 no binding seen
B8 no binding seen
B9 no binding seen
B10 no binding seen
B11 no binding seen
B12 no binding seen
B13 no binding seen
B14 > 1.04 µM
B15 no binding seen
B16 no binding seen
B17 no binding seen
B18 no binding seen
